# Test results taken from publication PMC11645656, “MRGPRX4 mediates phospho-drug associated pruritus in a humanized mouse model” (Science translational medicine, 2024).
# The chains behind the UniProt entries cited, without tags or fusion partners.
# UniProt Q96LA9, whole entry, stated change not applied: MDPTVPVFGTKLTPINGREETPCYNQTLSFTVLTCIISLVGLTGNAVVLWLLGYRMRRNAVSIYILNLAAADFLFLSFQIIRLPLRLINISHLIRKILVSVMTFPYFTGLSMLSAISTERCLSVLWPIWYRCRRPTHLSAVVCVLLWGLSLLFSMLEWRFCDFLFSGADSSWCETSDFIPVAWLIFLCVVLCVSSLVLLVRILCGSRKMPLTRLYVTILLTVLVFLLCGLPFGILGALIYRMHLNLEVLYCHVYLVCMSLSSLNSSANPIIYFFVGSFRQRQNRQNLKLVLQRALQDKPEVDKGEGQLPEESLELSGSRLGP
# UniProt Q96LA9, whole entry L83S: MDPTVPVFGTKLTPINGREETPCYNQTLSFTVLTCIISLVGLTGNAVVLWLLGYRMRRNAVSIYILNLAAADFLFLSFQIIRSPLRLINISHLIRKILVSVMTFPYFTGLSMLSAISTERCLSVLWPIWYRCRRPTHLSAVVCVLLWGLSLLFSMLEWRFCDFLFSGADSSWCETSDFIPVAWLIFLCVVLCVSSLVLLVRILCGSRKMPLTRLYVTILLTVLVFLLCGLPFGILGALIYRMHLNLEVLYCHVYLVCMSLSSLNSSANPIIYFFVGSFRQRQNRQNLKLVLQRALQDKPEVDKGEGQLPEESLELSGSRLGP
# “And” between values parts separate entries of the source, which are not always exact repeats. Equal values may be shown once. Further values from the same series stand in other lists.
# Assays:
# Assay type in all cases: cell-based
# Details in all cases: single replicate
# MRGPRX4 S83L (L83) [1] = target: T1, MRGPRX4 S83L (L83) (Homo sapiens, UniProt Q96LA9); test: Calcium mobilization assay (FLIPR), S83L MRGPRX4 transiently expressed in HEK293T cells; design: expressed in transfected cells; host or cells: HEK293T, transient
# Excerpt: (§1) Fig. 4. […] Hydrogen bond is shown as cyan dashed lines. […] Data are from three independent experiments, performed in triplicate. (E) pEC50 plots of various agonists toward S83- and L83-MRGPRX4 through calcium mobilization assay. […] Each data point represents an independent experiment, performed in triplicate. The extra sum-of-square F test was used to examine the difference in EC50 values. One-sided t-test was used for nateglinide. *p< 0.05, **p< 0.01 and ***p< 0.001. ns = no statistical significance. Both (D) and (E) are reported as the mean ± SEM. N.D.= no detectable response ≤ 100 μM.
# (§2) HEK293 cells and MRGPRX4 stably expressed HEK293 cells were seeded in 100 μl culture media on 96-well plates at a density of 40,000 cells per well and incubated overnight. The next day, the media were replaced with a dye-loading solution from the FLIPR Calcium 5 assay kit (Molecular Devices), diluted in Hank's Balanced Salt Solution (HBSS) with 20 mM HEPES, pH 7.4. After 1 h of incubation at 37°C, cells were allowed to recover for 10 min in the dark at room temperature prior to performing intracellular calcium mobilization assay in a Flexstation-3 instrument with SoftMax®Pro 7.1 software (Molecular Devices). Serial concentrations of tested drugs were prepared in HBSS/HEPES solution at 3X concentration. […] Compounds were tested in triplicates and the signals were averaged. Responses were determined by subtracting the minimum signal (at the baseline before adding the drug) from the maximum signal (obtained after drug stimulation). Four-parameter logistic (4PL) curve fit was used to plot the dose-response curves. […] Both dose-response curve fitting and EC50s calculation are computed with GraphPad Prism software (version: 6.o or above).
# (§3) To generate murine Mrgprs expressing cells, HEK293T cells (ATCC) were seeded on poly-D-lysine coated 96 well plate at 25,000 cells per well one day prior to transfection. HEK293T cells were transiently co-transfected with the mammalian expression plasmids carrying cDNA encoding the murine Mrgpr genes and plasmid inserted with cDNA encoding murine α-subunit of the heterotrimeric G15 protein (Gα15) in triplicates using Lipofectamine LTX reagents (Thermo Scientific). To generate WT, S83L, and alanine mutant MRGPRX4-expressing cells, HEK293T cells were seeded on poly-D-lysine coated 384 well plate at 12,000 cells per well one day prior to transfection. Mammalian expression plasmids pLX304 (vector from Addgene) carrying different MRGPRX4 coding sequences were transiently transfected into HEK293T cells in triplicates with Lipofectamine LTX reagents (Thermo Scientific). Intracellular calcium mobilization assays were performed after one day of transfection. Murine Mrgprs tested include Mrgpra1, Mrgpra2a, Mrgpra2b, Mrgpra3, Mrgpra4, Mrgpra6, Mrgpra9, Mrgpra10, Mrgpra11, Mrgpra12, Mrgpra14, Mrgprb5, Mrgprb6, Mrgprb10, Mrgprb11, and Mrgprc11. WT and mutant MRGPRX4 constructs tested include WT, S83L, R82A, R86A, R95A, W158A, Y250A, and Y254A.
# MRGPRX4 WT (S83) = MRGPRX4 WT (S83) (Homo sapiens, UniProt Q96LA9, L83S); test: Calcium mobilization assay (FLIPR), WT (S83) MRGPRX4 transiently expressed in HEK293T cells; design: expressed in transfected cells; host or cells: HEK293T, transient
# Excerpt: as §1, §2, §3
# MRGPRX4 S83L (L83) [2] = target: T1, MRGPRX4 S83L (L83); test: PRESTO-Tango β-arrestin recruitment assay, HTLA cells stably expressing S83L MRGPRX4
# Experimental: HTLA cells, a cell line derived from HEK293 and engineered to stably express a tTA-dependent luciferase reporter and a β-arrestin2-TEV fusion gene, were generously provided by Richard Axel's laboratory. HTLA cells were cultured in growth medium containing 2 μg/ml puromycin and 100 μg/ml hygromycin B in 5% CO2 at 37 °C. Stably MRGPRX4-expressing HTLA cells were generated by transfecting pcDNA3.1(+)-Zeo containing MRGPRX4-Tango construct (either with WT or S83L mutant sequence) into HTLA cells with Lipofectamine 3000 and selecting the successful transfected clones with Zeocin.
# HTLA cells stably expressing either WT or S83L MRGPRX4 were seeded in PDL-coated 96-well white clear bottom cell culture plates with DMEM containing 10% FBS, at a density of 35,000 cells per well and were allowed to attach to the bottom of the wells overnight. The next day, growth medium was replaced with 100 μl of serum-free medium containing the tested drugs at various concentrations, and the cells were then incubated at 37°C for 24 h. On the following day, media with drug solutions was removed and 50 μl per well of Bright-Glo™ Reagent from Bright-Glo™ Luciferase Assay System (Promega) was loaded. The plate was incubated at room temperature in the dark for 5 min, and the relative luminescence units were measured using the Flexstation-3 instrument with SoftMax®Pro 7.1 software (Molecular Devices). Dose response curves and EC50s were analyzed as described above.
# MRGPRX4 by β-arrestin (Tango) recruitment assay. Data are from three independent experiments,
# performed in triplicate, and depicted as mean ± SEM.
structure (smiles),measurement,setting,value
C[C@]12CC3CC(C(=O)N[C@H](Cc4ccccc4)C(=O)O)(C1)C[C@@](C)(C3)C2 [MS47134],"fig. S8 response (normalized), concentration-response",MRGPRX4 S83L (L83) [1]; 188.2 pM,2.444 and 6.228 and -10.8002 and -2.332 and 0.5102 and 0.2915 and 11.1877 and 5.351 and 0.4864
same,"fig. S8 response (normalized), concentration-response",MRGPRX4 S83L (L83) [1]; 564.5 pM,8.356 and 6.464 and -2.996 and 1.6035 and 2.697 and -11.516 and 8.269 and 0.9728 and -3.891
same,"fig. S8 response (normalized), concentration-response",MRGPRX4 S83L (L83) [1]; 1.69351e-9 M,6.228 and 7.41 and 6.464 and -1.895 and 5.758 and -4.956 and 14.8358 and 11.4309 and -3.648
same,"fig. S8 response (normalized), concentration-response",MRGPRX4 S83L (L83) [1]; 5.08053e-9 M,11.9038 and 4.336 and -7.016 and 3.353 and 3.571 and 0.2915 and 13.1334 and 3.648 and 2.4321
same,"fig. S8 response (normalized), concentration-response",MRGPRX4 S83L (L83) [1]; 1.52416e-8 M,5.991 and 6.937 and 5.518 and 5.977 and 3.134 and 9.475 and 16.0519 and 9.972 and 1.702
same,"fig. S8 response (normalized), concentration-response",MRGPRX4 S83L (L83) [1]; 4.57247e-8 M,18.7623 and 8.829 and 9.302 and 12.0991 and 12.3178 and 8.819 and 27.2396 and 13.1334 and 13.6198
same,"fig. S8 response (normalized), concentration-response",MRGPRX4 S83L (L83) [1]; 1.37174e-7 M,36.7363 and 35.3173 and 49.2708 and 38.9942 and 36.1516 and 47.0846 and 59.5865 and 54.2359 and 44.7507
same,"fig. S8 response (normalized), concentration-response",MRGPRX4 S83L (L83) [1]; 4.11523e-7 M,68.9003 and 70.3193 and 66.0623 and 59.3295 and 70.481 and 70.2624 and 89.7446 and 71.0174 and 72.4767
same,"fig. S8 response (normalized), concentration-response",MRGPRX4 S83L (L83) [1]; 1.23457e-6 M,80.7253 and 87.1108 and 108.396 and 80.758 and 79.2274 and 77.0408 and 109.201 and 100.689 and 83.9076
same,"fig. S8 response (normalized), concentration-response",MRGPRX4 S83L (L83) [1]; 3.7037e-6 M,102.72 and 125.187 and 116.673 and 83.8192 and 113.12 and 118.586 and 122.335 and 108.229 and 112.606
same,"fig. S8 response (normalized), concentration-response",MRGPRX4 S83L (L83) [1]; 1.11111e-5 M,106.74 and 105.321 and 99.6453 and 104.592 and 97.5948 and 94.7522 and 142.764 and 124.767 and 113.336
same,"fig. S8 response (normalized), concentration-response",MRGPRX4 S83L (L83) [1]; 3.33333e-5 M,111.707 and 102.483 and 84.0363 and 105.466 and 103.499 and 94.9708 and 102.878 and 86.3397 and 75.152
same,"fig. S8 response (normalized), concentration-response",MRGPRX4 S83L (L83) [1]; 0.0001 M,90.1853 and 100.828 and 110.761 and 96.2828 and 93.4402 and 106.341 and 128.901 and 111.877 and 94.8521
same,"fig. S8 response (normalized), concentration-response",MRGPRX4 WT (S83); 188.2 pM,13.5387
same,"fig. S8 response (normalized), concentration-response",MRGPRX4 WT (S83); 564.5 pM,4.54
same,"fig. S8 response (normalized), concentration-response",MRGPRX4 WT (S83); 1.69351e-9 M,19.8622
same,"fig. S8 response (normalized), concentration-response",MRGPRX4 WT (S83); 5.08053e-9 M,23.2671
same,"fig. S8 response (normalized), concentration-response",MRGPRX4 WT (S83); 1.52416e-8 M,17.6733
same,"fig. S8 response (normalized), concentration-response",MRGPRX4 WT (S83); 4.57247e-8 M,15.2412 and 22.2943
same,"fig. S8 response (normalized), concentration-response",MRGPRX4 WT (S83); 1.37174e-7 M,19.619 and 19.1325
same,"fig. S8 response (normalized), concentration-response",MRGPRX4 WT (S83); 4.11523e-7 M,26.6721
same,"fig. S8 response (normalized), concentration-response",MRGPRX4 WT (S83); 1.23457e-6 M,21.3214
same,"fig. S8 response (normalized), concentration-response",MRGPRX4 WT (S83); 3.7037e-6 M,23.2671
same,"fig. S8 response (normalized), concentration-response",MRGPRX4 WT (S83); 1.11111e-5 M,62.424
same,"fig. S8 response (normalized), concentration-response",MRGPRX4 WT (S83); 3.33333e-5 M,60.7215
same,"fig. S8 response (normalized), concentration-response",MRGPRX4 WT (S83); 0.0001 M,57.5598
CC(C)c1cccc(C(C)C)c1OCOP(=O)(O)O [Fospropofol],"fig. S7 response (raw signal), concentration-response",MRGPRX4 S83L (L83) [2]; 1.95e-8 M,14520.1 and 8567.12 and 9483.12 and 17760.9 and 17957.2 and 14106.7 and 18248.8 and 16344.1
same,"fig. S7 response (raw signal), concentration-response",MRGPRX4 S83L (L83) [2]; 3.91e-8 M,10747.5 and 10454.1 and 12552.8 and 13100.5 and 20055.9 and 18705.8 and 15801.3 and 16275.7 and 13807
same,"fig. S7 response (raw signal), concentration-response",MRGPRX4 S83L (L83) [2]; 7.81e-8 M,14946.2 and 9294.34 and 13417.8 and 19898.6 and 30205.8 and 30243.6 and 23582.8 and 20002.4 and 22818
same,"fig. S7 response (raw signal), concentration-response",MRGPRX4 S83L (L83) [2]; 1.56e-7 M,20632.5 and 18156.2 and 27308.9 and 50626.6 and 60480.9 and 43086.1 and 41288.7 and 36240.3 and 40252.6
same,"fig. S7 response (raw signal), concentration-response",MRGPRX4 S83L (L83) [2]; 3.13e-7 M,28782.5 and 29429.3 and 28436.7 and 111762 and 113697 and 111782 and 49525.7 and 41279.2 and 53368
same,"fig. S7 response (raw signal), concentration-response",MRGPRX4 S83L (L83) [2]; 6.25e-7 M,56396.3 and 60357.7 and 54431.5 and 266530 and 254615 and 266759 and 98954.5 and 110732 and 101355
same,"fig. S7 response (raw signal), concentration-response",MRGPRX4 S83L (L83) [2]; 1.25e-6 M,117485 and 143864 and 127914 and 530753 and 489488 and 488203 and 214593 and 203880 and 189396
same,"fig. S7 response (raw signal), concentration-response",MRGPRX4 S83L (L83) [2]; 2.5e-6 M,283549 and 253268 and 251790 and 906014 and 876206 and 872479 and 401910 and 375325 and 347600
same,"fig. S7 response (raw signal), concentration-response",MRGPRX4 S83L (L83) [2]; 5e-6 M,407540 and 468206 and 450720 and 1355419 and 1286075 and 1270466 and 563135 and 473189 and 565467
same,"fig. S7 response (raw signal), concentration-response",MRGPRX4 S83L (L83) [2]; 1e-5 M,570843 and 633653 and 614122 and 1590075 and 1551545 and 1573880 and 728467 and 709998 and 669765
same,"fig. S7 response (raw signal), concentration-response",MRGPRX4 S83L (L83) [2]; 2e-5 M,570426 and 578197 and 639667 and 1791802 and 1676170 and 1671132 and 592554 and 598891 and 664858
